Measured values: PMC10143440
Results are given in words; binding and its absence hold for the method and conditions named. In cells and extracts the contact can be indirect. These calls come from enrichment with a bait or labelling near it, and not all partners need be listed.

Chains of the proteins cited; added tags and fusions are not shown. Residues count along the entry.
UniProt P16305, residues 20-453: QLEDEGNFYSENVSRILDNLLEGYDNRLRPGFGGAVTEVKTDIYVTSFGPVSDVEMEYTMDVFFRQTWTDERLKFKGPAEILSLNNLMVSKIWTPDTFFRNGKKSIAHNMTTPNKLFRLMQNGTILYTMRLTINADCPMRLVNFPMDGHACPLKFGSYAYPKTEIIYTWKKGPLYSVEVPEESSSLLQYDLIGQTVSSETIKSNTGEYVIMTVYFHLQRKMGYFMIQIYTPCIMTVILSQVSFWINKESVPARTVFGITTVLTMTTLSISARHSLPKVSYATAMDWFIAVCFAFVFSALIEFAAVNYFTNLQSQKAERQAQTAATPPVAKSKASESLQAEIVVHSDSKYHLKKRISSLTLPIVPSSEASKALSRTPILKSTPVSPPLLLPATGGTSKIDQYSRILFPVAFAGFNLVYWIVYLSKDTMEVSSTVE
UniProt P62812, residues 28-455: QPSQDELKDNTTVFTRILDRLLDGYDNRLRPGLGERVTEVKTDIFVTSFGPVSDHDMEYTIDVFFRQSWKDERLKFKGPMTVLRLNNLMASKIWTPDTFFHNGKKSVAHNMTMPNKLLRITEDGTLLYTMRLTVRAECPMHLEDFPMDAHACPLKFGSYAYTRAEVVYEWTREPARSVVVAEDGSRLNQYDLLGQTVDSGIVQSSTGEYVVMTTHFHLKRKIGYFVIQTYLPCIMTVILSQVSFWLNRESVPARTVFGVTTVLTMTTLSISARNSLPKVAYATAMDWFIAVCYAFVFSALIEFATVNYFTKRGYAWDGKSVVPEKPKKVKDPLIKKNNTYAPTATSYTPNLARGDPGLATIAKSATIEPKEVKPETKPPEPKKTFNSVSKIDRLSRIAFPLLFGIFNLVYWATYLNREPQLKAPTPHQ
UniProt Q69ZK9, residues 15-836: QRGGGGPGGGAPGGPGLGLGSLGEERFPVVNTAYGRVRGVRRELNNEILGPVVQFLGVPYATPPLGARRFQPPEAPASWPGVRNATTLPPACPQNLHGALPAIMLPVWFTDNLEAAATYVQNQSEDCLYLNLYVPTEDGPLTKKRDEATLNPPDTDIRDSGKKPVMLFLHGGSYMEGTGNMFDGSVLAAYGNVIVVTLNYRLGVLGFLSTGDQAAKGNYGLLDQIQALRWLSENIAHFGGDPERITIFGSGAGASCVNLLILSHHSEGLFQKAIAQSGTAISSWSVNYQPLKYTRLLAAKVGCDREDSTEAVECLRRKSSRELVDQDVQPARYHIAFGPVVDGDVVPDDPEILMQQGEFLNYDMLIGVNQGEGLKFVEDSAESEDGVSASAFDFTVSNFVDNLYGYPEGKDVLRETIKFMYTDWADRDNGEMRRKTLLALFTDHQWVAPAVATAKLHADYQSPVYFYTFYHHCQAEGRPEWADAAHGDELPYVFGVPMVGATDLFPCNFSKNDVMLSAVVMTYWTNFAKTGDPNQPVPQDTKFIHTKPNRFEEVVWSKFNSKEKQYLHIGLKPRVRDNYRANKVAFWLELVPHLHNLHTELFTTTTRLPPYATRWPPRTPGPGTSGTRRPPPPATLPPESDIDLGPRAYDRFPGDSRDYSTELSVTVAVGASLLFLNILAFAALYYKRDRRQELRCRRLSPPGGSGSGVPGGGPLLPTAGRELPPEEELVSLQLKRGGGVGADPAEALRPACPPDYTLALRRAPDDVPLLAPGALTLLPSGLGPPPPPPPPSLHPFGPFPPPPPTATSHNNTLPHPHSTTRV

Columns and labels:
[1] = biological target: GABAA receptor α6 subunit (Gabra6) (mouse (endogenous in cerebellum)) (UniProt P16305); test: affinity purification with mass spectrometry; IP with anti-Gabra1 (N95/35) or anti-Gabra6 (Gabra6-a N229A/32, Gabra6-b custom) antibody from mouse cerebellum extract in 1% MNG, 25 mM HEPES, 150 mM NaCl, pH 7.4, overnight 4 °C; protein A/G agarose; washes 0.1% MNG; SDS-PAGE, LC-MS (DDA, iBAQ)
[2] = biological target: GABAA receptor α1 subunit (Gabra1) (mouse (endogenous in cerebellum)) (UniProt P62812); test: as above

Substance	binding [1]	binding [2]
GABAA receptor δ subunit (Gabrd) (from UniProt P22933 25-449)	binds	
Neuroligin-2 (Nlgn2) (from UniProt Q69ZK9 15-836)	binds	binds
